From patent publication US7737142B2, “(Thio) carbamoyl-cyclohexane derivatives as D3/D2 receptor antagonists” (Richter Gedeon Vegyeszeti Gyar Rt., priority 2003, dated 2010)

Target: Alpha-1 receptor (rat brain cortical membrane preparation)
Test: Alpha-1 receptor binding ([3H]-prasosin)
Settings: rat brain cortical membranes, [3H]-prasosin 0.5 nM; read-out: Alfa-1 IC-50

Q: With `Cc1nc2n(c(=O)c1CCN1CCC(c3noc4cc(F)ccc34)CC1)CCCC2` [Risperidone, reference compound] as the compound, how does the IC50 read?
A: 1 to 10 nM
